The assay addresses T1, VGluRδ2 (fusion between Venus and the glutamate receptor delta2, GluRδ2) (UniProt Q61625).
T1 sequence: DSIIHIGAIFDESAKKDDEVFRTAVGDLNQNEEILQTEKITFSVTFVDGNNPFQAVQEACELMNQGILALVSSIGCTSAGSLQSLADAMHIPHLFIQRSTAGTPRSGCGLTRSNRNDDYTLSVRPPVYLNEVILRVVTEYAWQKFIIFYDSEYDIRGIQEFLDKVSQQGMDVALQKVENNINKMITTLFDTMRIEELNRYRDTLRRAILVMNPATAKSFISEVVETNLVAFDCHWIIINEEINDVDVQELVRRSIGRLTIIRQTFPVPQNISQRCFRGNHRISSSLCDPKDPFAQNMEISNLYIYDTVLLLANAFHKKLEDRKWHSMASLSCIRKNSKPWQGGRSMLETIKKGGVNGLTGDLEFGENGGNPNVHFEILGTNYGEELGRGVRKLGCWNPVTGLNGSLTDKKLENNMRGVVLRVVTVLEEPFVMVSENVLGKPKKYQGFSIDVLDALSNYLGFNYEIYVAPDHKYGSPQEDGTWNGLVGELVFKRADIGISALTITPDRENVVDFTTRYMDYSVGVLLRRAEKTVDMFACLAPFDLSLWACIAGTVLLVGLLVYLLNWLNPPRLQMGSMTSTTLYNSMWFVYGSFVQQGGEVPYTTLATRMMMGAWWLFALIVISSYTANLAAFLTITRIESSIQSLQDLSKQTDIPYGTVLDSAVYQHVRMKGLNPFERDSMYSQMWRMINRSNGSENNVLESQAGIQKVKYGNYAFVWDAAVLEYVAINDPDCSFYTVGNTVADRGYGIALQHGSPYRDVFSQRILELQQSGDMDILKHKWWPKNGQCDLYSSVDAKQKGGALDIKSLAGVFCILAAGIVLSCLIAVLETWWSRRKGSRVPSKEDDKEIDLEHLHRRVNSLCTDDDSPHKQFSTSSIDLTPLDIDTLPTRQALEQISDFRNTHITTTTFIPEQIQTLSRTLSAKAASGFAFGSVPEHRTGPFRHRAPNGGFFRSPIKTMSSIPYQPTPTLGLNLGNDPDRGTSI
Briefly: affinity purification with mass spectrometry; same anti-GFP affinity purification of pooled synaptic fractions (samples pooled from 30 and from 50 Pcp2/VGluRδ2 cerebella); SDS-PAGE, in-gel trypsin digestion, MALDI QqTOF MS and MALDI-IT MS/MS; control isolates from Pcp2/eGFP mice.

The chains behind the UniProt entries cited, without tags or fusion partners. Residues count along the entry.
UniProt P28828, residues 21-1452: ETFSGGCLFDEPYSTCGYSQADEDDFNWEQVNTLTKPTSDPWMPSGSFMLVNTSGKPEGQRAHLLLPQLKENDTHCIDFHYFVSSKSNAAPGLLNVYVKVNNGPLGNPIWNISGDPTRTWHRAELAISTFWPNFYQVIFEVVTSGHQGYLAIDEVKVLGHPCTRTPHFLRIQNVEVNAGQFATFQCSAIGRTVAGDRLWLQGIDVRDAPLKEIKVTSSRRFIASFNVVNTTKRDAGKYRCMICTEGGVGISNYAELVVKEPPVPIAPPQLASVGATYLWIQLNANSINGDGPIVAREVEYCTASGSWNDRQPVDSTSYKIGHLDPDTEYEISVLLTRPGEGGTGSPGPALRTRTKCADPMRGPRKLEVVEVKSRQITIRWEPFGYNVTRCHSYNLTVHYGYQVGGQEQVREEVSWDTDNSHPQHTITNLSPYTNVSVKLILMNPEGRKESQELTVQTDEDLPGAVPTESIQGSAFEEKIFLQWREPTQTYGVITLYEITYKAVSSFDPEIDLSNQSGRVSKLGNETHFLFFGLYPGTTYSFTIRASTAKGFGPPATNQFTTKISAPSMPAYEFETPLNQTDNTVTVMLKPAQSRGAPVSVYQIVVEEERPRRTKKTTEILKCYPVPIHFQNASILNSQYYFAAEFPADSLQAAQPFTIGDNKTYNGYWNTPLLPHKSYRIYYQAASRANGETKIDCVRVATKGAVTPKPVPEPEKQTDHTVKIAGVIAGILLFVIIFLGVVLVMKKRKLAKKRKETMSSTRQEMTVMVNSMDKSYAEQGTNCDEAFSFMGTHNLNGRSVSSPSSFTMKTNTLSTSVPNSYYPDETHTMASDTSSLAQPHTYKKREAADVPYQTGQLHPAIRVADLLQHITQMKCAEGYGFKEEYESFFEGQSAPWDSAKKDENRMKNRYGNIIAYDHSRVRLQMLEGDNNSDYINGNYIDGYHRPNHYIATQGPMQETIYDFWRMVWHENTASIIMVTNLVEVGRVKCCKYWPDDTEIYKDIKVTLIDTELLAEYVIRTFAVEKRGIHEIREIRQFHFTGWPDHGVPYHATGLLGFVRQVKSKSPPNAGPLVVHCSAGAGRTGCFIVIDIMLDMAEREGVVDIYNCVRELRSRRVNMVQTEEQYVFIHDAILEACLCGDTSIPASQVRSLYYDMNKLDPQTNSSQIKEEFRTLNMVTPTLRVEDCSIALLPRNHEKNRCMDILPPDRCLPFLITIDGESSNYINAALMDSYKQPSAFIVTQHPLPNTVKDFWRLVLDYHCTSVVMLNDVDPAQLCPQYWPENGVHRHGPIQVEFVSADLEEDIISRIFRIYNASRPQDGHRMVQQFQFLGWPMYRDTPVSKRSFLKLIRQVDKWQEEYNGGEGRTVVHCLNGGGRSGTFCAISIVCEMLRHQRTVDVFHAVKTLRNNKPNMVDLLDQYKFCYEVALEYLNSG
UniProt P16305, residues 20-453: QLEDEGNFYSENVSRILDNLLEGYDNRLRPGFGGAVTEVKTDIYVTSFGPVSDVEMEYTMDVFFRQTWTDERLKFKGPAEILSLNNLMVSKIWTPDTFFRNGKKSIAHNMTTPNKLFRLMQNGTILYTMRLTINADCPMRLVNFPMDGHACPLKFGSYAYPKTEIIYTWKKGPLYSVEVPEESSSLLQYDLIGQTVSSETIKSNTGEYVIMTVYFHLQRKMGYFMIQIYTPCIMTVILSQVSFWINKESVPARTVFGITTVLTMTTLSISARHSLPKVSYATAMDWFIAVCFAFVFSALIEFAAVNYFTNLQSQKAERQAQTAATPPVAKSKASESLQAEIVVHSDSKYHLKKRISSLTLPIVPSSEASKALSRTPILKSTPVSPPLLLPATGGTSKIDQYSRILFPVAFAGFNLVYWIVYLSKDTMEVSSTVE
UniProt Q80W68, residues 48-789: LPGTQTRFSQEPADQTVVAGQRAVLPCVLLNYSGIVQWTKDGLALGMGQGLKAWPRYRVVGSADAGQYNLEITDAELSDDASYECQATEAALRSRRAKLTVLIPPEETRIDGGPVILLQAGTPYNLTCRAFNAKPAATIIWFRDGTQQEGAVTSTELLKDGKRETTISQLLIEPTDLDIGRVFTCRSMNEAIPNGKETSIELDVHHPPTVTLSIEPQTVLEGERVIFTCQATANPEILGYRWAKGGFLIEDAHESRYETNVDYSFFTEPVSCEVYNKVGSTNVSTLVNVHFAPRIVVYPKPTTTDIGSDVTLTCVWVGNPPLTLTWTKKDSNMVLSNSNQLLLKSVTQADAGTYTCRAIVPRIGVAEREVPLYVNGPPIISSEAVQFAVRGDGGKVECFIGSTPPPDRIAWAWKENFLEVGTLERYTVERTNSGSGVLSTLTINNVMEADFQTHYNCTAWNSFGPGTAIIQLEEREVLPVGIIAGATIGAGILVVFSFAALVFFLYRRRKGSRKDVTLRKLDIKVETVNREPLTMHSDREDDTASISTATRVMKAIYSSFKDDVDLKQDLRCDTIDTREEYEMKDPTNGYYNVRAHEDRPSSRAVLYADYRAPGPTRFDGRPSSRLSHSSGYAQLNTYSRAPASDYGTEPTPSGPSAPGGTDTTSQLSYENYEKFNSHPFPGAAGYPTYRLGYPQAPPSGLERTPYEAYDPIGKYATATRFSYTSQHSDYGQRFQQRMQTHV
UniProt Q8BKX1: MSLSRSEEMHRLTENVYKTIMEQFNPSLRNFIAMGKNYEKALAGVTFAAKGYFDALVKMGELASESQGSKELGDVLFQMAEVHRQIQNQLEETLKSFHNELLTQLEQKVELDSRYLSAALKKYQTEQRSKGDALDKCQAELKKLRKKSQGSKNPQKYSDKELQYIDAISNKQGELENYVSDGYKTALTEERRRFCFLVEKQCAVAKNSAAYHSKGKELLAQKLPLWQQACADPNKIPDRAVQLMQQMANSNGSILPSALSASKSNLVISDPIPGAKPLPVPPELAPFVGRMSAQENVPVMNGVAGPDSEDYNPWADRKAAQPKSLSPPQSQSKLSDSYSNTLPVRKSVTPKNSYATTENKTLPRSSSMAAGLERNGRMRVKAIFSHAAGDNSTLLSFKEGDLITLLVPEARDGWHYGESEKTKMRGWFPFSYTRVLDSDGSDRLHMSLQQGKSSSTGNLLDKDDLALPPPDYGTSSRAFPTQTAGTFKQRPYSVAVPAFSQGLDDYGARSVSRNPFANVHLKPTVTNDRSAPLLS
UniProt P28652: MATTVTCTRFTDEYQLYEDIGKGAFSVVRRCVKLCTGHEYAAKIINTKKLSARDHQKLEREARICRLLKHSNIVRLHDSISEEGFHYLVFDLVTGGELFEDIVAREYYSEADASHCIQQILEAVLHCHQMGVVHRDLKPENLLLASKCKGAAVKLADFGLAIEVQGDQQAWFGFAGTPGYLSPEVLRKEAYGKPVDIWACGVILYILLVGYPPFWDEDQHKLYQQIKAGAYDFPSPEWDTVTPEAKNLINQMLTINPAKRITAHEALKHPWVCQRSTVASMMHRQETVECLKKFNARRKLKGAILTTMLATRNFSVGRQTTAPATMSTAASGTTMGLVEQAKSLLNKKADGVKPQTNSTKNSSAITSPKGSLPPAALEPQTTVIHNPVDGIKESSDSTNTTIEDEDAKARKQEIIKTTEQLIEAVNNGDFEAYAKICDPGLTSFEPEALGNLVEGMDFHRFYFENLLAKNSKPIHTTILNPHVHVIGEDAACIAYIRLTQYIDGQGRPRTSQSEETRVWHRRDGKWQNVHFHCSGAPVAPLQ
UniProt P11881: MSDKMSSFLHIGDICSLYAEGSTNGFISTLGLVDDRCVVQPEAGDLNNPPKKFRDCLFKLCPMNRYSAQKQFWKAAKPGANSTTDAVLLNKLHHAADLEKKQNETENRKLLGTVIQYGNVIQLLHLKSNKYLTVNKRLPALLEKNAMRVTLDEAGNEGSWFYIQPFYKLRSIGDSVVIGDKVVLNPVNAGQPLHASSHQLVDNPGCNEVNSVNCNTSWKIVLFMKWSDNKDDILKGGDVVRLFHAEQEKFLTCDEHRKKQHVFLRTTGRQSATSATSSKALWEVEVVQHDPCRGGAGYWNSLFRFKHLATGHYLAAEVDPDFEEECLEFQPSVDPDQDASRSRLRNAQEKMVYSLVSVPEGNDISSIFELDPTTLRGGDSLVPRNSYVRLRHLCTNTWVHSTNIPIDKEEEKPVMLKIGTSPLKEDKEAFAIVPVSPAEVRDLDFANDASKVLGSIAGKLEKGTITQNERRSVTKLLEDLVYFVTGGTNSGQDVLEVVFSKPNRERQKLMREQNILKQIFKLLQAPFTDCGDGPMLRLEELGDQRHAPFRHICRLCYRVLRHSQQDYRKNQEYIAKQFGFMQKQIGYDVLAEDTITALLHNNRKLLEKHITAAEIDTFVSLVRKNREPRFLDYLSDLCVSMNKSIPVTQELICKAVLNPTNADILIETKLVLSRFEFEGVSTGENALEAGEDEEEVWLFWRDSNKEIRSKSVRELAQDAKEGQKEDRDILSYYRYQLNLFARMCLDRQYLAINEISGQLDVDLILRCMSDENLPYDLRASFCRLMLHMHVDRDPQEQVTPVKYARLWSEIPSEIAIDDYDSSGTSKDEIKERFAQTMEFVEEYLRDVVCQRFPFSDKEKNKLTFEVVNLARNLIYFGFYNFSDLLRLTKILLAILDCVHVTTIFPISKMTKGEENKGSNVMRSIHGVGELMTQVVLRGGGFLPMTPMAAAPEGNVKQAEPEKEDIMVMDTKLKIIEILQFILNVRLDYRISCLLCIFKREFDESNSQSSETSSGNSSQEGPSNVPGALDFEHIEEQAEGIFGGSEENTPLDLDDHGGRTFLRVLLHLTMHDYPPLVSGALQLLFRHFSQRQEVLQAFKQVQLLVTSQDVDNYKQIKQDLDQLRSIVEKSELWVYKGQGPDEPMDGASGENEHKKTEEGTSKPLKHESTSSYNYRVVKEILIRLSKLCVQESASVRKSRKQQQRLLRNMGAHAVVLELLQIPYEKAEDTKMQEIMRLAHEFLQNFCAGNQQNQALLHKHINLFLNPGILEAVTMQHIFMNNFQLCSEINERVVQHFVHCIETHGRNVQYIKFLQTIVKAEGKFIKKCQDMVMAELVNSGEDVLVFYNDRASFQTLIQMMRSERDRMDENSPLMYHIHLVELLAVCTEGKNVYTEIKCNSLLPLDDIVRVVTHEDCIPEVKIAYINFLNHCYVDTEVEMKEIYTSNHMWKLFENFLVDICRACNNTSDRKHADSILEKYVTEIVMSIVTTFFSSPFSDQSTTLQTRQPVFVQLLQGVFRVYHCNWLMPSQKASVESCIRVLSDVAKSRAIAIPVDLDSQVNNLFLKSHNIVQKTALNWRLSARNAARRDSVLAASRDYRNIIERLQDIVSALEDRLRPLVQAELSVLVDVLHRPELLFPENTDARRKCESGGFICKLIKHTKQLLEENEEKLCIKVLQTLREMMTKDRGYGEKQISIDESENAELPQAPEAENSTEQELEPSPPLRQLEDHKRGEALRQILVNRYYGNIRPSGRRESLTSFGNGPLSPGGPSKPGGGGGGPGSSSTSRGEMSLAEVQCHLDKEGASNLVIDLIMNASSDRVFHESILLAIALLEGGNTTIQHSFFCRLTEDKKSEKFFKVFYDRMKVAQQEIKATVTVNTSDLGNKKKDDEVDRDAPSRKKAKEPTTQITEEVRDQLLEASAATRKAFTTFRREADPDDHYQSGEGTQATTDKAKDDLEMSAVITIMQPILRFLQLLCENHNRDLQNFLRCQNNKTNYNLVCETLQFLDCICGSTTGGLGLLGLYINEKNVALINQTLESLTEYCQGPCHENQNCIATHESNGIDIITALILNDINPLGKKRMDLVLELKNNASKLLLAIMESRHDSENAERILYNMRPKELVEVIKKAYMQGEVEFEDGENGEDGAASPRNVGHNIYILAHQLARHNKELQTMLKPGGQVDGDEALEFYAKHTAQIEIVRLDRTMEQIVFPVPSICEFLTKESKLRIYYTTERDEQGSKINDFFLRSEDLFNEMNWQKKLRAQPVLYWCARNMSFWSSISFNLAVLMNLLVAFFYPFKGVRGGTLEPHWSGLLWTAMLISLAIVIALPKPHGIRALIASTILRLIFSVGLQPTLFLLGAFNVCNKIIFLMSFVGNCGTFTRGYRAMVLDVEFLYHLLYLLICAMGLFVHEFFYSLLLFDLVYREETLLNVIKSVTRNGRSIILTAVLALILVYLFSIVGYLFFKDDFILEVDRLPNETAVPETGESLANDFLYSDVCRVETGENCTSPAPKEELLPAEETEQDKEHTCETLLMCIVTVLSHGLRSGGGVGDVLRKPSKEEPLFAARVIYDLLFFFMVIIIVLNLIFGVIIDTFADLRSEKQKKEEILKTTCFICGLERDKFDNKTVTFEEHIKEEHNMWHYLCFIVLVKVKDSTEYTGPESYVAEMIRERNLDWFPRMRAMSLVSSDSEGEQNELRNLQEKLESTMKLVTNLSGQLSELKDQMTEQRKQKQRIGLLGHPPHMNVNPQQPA

No constants are given. Whether binding was seen depends on the method and setting. In cells and extracts the contact can be indirect. These calls come from enrichment with a bait or labelling near it, and not all partners need be listed. No binding means not detected with the bait. Sequences can lack the tags named with a protein.

For “phospholipase B (mouse (endogenous in cerebellum)) (enzyme)”, the binding result is “binds”.
Next, “receptor tyrosine phosphatase RPTPmu (from UniProt P28828 21-1452)”: “binds”; “GABA(A) receptor α6 (from UniProt P16305 20-453)”: “no binding”.
On to Neph1 (from UniProt Q80W68 48-789), for which the binding entry is reported as “binds”.
Next, “synaptojanin 1 (from UniProt Q8CHC4 1-1574) (enzyme)”: “binds”.
With BAIAP2 (from UniProt Q8BKX1 1-535), the binding entry was “binds”.
Next, ABCA12 (from UniProt E9Q876 1-2595): “binds”.
Next, “kinase MRCK gamma (MRCKγ) (from UniProt Q80UW5 1-1551) (enzyme)”: “binds”; “Camk2b (from UniProt P28652 1-542) (enzyme)”: “binds”.
“Gm941 (mouse (endogenous in cerebellum))”: the binding result was “binds”.
Next, Shank1 (from UniProt D3YZU1 1-2167): “binds”.
Turning to “Itpr1 (from UniProt P11881 1-2749) (receptor)”, the binding result is “binds”.

Values taken from article PMC2672601.
